Experimental data: patent US6512161
Results are given in words; binding and its absence hold for the method and conditions named. Some results given as binding are weak or reduced against the parent protein; the word gives no strength.

By UniProt entry, the sequences of proteins in these tests, tags left out. Residues count along the entry.
UniProt P04114, residues 28-4563: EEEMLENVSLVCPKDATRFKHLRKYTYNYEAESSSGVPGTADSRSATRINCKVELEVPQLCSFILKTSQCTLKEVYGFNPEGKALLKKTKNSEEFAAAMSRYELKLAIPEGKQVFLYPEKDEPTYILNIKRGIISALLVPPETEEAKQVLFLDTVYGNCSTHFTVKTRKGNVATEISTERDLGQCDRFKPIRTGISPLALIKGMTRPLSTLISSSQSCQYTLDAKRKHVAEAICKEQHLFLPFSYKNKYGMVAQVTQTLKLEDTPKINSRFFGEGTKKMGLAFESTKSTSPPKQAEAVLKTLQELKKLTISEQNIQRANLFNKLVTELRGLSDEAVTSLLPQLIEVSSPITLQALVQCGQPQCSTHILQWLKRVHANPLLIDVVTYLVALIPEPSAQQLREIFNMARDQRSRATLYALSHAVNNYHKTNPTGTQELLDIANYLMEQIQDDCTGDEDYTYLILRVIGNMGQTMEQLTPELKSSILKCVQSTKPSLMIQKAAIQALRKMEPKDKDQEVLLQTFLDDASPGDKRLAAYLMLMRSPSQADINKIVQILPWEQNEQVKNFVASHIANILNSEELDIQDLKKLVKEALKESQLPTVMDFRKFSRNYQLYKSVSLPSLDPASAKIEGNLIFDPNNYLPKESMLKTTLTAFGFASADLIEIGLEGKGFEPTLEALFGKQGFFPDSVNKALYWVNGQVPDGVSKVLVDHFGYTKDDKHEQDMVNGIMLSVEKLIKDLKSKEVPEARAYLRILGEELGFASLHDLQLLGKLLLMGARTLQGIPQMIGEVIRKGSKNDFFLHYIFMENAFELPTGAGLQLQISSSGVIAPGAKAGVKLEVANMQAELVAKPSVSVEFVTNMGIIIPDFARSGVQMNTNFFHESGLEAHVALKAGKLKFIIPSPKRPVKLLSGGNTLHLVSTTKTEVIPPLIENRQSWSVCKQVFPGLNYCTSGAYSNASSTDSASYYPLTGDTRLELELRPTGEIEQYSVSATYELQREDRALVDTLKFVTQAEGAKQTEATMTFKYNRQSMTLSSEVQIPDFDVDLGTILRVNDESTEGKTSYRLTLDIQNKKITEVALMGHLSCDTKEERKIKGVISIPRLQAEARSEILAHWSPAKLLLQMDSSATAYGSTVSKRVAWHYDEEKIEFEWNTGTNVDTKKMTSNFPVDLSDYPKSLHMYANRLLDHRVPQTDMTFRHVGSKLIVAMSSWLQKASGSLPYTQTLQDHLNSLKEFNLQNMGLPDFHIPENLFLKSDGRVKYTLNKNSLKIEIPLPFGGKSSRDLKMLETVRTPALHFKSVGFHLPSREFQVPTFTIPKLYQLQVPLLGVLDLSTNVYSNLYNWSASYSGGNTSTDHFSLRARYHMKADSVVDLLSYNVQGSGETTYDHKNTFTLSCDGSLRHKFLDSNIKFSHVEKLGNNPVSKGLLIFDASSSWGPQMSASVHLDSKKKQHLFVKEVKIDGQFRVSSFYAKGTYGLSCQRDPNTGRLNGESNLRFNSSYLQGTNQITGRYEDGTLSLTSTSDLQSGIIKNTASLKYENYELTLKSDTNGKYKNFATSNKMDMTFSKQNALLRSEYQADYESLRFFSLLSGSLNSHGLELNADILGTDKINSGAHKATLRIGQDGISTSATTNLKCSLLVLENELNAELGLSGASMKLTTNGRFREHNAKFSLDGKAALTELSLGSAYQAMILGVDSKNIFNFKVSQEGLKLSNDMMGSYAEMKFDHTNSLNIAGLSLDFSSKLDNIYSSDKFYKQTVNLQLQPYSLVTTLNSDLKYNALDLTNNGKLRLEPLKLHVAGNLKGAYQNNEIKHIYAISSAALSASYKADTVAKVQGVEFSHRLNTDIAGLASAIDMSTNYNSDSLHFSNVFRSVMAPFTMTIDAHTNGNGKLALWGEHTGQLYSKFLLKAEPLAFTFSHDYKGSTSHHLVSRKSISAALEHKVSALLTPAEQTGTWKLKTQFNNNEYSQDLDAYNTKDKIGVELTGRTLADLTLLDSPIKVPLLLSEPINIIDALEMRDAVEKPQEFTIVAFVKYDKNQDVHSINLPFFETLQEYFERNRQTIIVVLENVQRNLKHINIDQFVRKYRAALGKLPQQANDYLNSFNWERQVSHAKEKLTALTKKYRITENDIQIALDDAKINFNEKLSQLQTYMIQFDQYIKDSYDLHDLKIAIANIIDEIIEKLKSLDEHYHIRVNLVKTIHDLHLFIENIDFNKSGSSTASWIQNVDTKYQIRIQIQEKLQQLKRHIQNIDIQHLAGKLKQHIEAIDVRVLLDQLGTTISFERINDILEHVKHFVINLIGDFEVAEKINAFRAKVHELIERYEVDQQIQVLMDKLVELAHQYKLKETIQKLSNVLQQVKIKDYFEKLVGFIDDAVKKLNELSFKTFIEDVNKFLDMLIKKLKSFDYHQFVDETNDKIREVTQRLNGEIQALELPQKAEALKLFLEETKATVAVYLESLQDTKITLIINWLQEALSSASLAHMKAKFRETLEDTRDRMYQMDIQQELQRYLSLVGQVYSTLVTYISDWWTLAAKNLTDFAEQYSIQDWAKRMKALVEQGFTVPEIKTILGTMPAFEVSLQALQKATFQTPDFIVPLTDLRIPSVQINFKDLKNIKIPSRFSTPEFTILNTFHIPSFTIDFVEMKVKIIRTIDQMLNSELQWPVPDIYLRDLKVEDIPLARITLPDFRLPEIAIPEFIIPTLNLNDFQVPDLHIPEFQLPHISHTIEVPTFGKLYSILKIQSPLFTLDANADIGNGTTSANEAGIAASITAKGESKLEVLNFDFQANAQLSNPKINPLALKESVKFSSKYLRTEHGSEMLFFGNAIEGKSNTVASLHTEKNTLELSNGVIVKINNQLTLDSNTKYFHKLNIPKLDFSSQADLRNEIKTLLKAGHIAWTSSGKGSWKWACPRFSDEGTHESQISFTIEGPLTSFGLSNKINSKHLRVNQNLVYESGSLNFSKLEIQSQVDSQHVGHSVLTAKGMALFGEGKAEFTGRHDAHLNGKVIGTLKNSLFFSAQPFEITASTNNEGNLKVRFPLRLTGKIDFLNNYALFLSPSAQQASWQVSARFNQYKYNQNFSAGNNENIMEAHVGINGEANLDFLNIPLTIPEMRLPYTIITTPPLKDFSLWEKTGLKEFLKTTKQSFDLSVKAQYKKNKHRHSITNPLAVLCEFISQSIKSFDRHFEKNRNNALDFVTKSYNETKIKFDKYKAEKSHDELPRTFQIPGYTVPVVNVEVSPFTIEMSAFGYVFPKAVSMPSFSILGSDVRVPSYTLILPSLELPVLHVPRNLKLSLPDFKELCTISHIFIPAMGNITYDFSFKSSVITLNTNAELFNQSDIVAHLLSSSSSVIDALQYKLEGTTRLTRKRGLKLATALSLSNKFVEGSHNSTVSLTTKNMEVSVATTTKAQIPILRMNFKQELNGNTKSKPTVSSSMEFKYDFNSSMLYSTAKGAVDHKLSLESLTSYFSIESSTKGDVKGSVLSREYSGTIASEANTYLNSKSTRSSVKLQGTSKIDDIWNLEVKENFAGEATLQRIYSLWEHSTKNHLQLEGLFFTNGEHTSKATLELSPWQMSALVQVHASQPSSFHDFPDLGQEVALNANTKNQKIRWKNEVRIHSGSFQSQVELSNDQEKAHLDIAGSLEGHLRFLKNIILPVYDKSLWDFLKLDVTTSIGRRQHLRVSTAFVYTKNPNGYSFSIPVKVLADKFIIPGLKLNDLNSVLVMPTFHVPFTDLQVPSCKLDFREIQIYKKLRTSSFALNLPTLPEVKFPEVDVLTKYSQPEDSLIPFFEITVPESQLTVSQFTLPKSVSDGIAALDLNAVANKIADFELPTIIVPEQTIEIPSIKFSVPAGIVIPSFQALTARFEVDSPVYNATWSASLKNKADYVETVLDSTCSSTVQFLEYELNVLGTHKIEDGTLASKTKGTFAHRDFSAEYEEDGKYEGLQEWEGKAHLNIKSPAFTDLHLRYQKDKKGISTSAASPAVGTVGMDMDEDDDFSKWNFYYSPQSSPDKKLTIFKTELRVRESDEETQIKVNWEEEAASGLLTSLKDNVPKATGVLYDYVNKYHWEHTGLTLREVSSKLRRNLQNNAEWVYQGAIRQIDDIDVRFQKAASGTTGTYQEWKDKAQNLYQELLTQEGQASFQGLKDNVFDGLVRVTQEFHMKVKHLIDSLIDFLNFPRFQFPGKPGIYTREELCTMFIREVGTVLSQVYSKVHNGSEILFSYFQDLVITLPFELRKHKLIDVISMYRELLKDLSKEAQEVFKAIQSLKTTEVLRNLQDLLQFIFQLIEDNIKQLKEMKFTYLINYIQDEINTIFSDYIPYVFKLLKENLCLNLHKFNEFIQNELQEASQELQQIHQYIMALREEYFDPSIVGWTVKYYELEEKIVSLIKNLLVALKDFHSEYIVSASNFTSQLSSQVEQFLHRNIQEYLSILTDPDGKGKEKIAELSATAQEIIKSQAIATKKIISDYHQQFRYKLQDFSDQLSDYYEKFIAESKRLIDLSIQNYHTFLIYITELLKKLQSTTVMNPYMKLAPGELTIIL
UniProt P08519, residues 20-2040: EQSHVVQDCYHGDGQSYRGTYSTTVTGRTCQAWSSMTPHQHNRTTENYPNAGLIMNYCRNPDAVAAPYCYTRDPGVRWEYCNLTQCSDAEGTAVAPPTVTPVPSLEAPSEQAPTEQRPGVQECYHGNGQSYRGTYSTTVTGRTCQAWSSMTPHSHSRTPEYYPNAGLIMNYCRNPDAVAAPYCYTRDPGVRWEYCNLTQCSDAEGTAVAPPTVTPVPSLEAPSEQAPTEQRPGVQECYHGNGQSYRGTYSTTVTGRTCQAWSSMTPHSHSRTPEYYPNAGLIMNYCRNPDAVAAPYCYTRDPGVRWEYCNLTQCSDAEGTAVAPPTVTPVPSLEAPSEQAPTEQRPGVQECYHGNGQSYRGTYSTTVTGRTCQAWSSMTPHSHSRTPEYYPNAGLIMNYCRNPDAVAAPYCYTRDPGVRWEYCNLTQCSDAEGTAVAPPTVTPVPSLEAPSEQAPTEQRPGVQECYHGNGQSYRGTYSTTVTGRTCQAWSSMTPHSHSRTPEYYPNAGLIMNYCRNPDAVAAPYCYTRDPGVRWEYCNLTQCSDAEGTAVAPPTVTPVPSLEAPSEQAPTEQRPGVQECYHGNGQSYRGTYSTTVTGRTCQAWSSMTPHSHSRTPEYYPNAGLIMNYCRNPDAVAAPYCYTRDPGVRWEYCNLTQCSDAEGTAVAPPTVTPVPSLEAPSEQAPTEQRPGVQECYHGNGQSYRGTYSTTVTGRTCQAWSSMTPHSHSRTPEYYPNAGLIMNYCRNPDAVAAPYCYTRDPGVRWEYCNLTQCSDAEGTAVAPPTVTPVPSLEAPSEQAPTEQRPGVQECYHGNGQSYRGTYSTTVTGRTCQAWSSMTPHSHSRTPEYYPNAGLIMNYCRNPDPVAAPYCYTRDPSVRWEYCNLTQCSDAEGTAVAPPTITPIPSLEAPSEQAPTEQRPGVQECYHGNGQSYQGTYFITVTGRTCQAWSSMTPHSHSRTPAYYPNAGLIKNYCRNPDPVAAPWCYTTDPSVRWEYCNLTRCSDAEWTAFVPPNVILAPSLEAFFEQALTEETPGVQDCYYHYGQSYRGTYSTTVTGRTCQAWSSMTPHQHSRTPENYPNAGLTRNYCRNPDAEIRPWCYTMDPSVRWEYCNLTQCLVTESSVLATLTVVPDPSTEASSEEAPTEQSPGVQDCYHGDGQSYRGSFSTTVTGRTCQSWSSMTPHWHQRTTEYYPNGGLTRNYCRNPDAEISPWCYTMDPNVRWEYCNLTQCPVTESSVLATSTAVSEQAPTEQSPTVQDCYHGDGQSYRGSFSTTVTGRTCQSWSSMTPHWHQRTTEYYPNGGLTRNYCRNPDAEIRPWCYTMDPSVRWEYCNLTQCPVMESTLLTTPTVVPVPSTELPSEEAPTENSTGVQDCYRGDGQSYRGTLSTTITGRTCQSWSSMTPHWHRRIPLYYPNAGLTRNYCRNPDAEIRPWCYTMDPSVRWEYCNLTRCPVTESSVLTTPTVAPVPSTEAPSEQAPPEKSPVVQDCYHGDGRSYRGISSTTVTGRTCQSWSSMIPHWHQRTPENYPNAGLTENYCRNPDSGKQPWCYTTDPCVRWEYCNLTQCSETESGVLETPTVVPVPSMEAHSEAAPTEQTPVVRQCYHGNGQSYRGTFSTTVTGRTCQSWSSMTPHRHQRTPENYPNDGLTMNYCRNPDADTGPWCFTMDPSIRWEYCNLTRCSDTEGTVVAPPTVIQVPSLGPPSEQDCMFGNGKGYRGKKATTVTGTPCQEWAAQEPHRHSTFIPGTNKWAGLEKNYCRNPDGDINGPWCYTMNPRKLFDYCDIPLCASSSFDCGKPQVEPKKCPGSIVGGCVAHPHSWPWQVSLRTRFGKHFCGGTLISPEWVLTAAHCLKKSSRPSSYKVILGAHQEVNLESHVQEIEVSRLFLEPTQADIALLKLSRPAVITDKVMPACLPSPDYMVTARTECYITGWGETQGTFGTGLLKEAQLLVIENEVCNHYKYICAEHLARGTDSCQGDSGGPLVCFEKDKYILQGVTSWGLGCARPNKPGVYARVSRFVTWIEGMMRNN

Experiments:
[1] = biological target: human apolipoprotein B-100 (human) (UniProt P04114); test: immunoblot and ultracentrifugation of apoB/apo(a) transgenic rabbit plasma
[2] = biological target: human apolipoprotein B-100 (human) (UniProt P04114); test: non-reducing SDS-PAGE and anti-apo(a) immunoblot of transgenic rabbit plasma
[3] = biological target: human apolipoprotein B-100 (human) (UniProt P04114); test: ultracentrifugation of lipoproteins, apo(a) ELISA of the lipoprotein fraction
[4] = biological target: human apolipoprotein B-100 (human) (UniProt P04114); test: Superose 6 gel filtration of plasma, non-reducing anti-apo(a) immunoblot of LDL fractions

Measured: binding

human apolipoprotein(a) (from UniProt P08519 20-2040)
binds: [1] | [2] | [3] | [4]
